{"source": "patent US12653874B2", "about": "“Nant cancer vaccine” (NantCell, Inc., priority 2016, dated 2026)", "origin": "cited, not measured here", "tested_on": "advanced melanoma", "conditions": "result in words", "note": "At least one compound was matched to its structure with a doubt left."}
{"smiles": "CCCS(=O)(=O)Nc1ccc(F)c(C(=O)c2c[nH]c3ncc(-c4ccc(Cl)cc4)cc23)c1F", "note": "[Vemurafenib]", "values": [{"measurement": "OS", "setting": "advanced melanoma", "result": "improvement in both PFS and OS"}, {"measurement": "PFS", "setting": "unresectable or advanced melanoma", "result": "improvement in both PFS and OS"}]}
